Assay results from patent publication US20060128614A1, “Antimicrobial peptides with reduced hemolysis and methods of their use” (priority 2002, published 2006).
Not every detail of the peptide structures is certain; ends, links or a residue may be inferred. Non-standard residues stand in square brackets, D forms with d. Residues, ends and D or L forms follow the SMILES beside them. 2Nal = N[C@@H](Cc1ccc2ccccc2c1)C(=O)O

System: outer membrane of E. coli
Experiment: NPN uptake assay, outer membrane permeabilization
Format: cell-based
Conditions: intact cells of E. coli
Description: The outer membrane permeabilization activity of the peptide variants was determined by the 1-N-phenylnaphthylamine (NPN) uptake assay, using intact cells of E. coli. […] Since NPN is hydrophobic, it provides a direct measurement of the degree of outer membrane permeability. E. coli take up little or no NPN in a general condition. In the presence of permeabilizer compounds (EDTA, polymyxin B, Neomycin, or antimicrobial peptides), NPN partitioned into the bacterial outer membrane results in an increase in fluorescence. Fluorescence will vary with the concentration of peptide.
One ml of overnight culture was used to inoculate 50 ml of media and incubated at 37° C. with shaking. The culture was permitted to grow to an OD600 of 0.4 to 0.6, cells were spun down at 3500 rpm for 10 minutes, washed, and re-suspended in buffer to an OD600 of 0.5. The OD600 was recorded, 1 ml of cells (OD600=0.5) was added to the cuvette and measured after 2-5 seconds. 20 μl NPN 0.5 mM, shaken to mix, was added and measured after 2-5 seconds. 10 ul antibiotic 100× desired final concentration was added, shaken to mix, and measured until the maximal value was reached within 1 to 5 minutes. The concentration of peptide leading to 50% of the maximum increase in NPN uptake was recorded as the P50.

CC[C@H](C)[C@H](NC(=O)[C@H](Cc1ccc2ccccc2c1)NC(=O)[C@H](CCCCN)NC(C)=O)C(=O)N[C@@H](CCCCN)C(=O)N[C@@H](Cc1ccc2ccccc2c1)C(=O)N[C@@H](CCCNC(=N)N)C(N)=O [Pac-403 L, K (2-Nal) I K (2-Nal) R] (Ac-K[2Nal]IK[2Nal]R-NH2)
P50 (concentration of peptide leading to 50% of the maximum increase in NPN uptake): 8 µg/mL

CC[C@H](C)[C@H](NC(=O)[C@H](Cc1ccc2ccccc2c1)NC(=O)[C@H](CCCNC(=N)N)NC(=O)[C@H](CCCNC(=N)N)NC(=O)[C@H](Cc1ccc2ccccc2c1)NC(=O)[C@H](CCCCN)NC(C)=O)C(N)=O [Pac-401 L, K (2-Nal) R R (2-Nal) I] (Ac-K[2Nal]RR[2Nal]I-NH2)
P50 (concentration of peptide leading to 50% of the maximum increase in NPN uptake): 8 µg/mL
